Results as given in publication PMC11443824.
These are yes or no findings as the source states them, for the method shown. In cells and extracts the contact can be indirect. Some binding calls cover weakened binding; strength is not graded here.

Sequences of proteins named here, by UniProt entry; tags and fusion partners are left off. Residues count along the entry.
UniProt P35968, residues 20-1356: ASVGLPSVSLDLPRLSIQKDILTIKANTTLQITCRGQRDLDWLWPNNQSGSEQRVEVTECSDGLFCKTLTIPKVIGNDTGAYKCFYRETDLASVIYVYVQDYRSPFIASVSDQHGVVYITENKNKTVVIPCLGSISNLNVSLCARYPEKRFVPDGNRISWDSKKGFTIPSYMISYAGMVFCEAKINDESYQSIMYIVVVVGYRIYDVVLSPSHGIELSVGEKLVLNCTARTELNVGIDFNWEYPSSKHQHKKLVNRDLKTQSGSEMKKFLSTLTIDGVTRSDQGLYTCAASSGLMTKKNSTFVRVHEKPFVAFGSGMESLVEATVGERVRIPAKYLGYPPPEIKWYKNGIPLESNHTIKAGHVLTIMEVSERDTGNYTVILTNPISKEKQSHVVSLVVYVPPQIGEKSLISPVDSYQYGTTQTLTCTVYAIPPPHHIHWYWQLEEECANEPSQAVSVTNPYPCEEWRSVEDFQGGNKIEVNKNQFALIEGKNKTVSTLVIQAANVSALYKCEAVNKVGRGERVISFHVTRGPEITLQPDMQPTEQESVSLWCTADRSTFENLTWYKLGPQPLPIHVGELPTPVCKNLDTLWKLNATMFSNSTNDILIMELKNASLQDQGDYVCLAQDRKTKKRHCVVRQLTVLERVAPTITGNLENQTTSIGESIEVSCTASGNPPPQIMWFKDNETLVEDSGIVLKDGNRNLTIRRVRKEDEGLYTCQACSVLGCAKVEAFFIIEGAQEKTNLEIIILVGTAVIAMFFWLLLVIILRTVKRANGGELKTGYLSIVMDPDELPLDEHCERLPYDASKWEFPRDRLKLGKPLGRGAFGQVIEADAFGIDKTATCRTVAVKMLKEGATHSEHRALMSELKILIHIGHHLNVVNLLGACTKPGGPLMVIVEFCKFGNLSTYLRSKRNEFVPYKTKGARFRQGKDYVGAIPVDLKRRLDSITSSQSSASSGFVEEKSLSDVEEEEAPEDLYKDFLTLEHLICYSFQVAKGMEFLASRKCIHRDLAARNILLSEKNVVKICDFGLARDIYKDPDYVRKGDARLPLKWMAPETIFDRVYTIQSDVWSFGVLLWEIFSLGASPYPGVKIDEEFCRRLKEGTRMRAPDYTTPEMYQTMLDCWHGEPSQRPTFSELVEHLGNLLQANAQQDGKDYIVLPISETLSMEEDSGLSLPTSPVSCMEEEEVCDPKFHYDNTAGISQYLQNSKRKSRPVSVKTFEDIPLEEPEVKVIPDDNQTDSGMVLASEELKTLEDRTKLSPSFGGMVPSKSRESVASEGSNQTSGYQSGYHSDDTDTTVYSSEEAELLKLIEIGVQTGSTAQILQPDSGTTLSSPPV
UniProt P08581, residues 25-1390: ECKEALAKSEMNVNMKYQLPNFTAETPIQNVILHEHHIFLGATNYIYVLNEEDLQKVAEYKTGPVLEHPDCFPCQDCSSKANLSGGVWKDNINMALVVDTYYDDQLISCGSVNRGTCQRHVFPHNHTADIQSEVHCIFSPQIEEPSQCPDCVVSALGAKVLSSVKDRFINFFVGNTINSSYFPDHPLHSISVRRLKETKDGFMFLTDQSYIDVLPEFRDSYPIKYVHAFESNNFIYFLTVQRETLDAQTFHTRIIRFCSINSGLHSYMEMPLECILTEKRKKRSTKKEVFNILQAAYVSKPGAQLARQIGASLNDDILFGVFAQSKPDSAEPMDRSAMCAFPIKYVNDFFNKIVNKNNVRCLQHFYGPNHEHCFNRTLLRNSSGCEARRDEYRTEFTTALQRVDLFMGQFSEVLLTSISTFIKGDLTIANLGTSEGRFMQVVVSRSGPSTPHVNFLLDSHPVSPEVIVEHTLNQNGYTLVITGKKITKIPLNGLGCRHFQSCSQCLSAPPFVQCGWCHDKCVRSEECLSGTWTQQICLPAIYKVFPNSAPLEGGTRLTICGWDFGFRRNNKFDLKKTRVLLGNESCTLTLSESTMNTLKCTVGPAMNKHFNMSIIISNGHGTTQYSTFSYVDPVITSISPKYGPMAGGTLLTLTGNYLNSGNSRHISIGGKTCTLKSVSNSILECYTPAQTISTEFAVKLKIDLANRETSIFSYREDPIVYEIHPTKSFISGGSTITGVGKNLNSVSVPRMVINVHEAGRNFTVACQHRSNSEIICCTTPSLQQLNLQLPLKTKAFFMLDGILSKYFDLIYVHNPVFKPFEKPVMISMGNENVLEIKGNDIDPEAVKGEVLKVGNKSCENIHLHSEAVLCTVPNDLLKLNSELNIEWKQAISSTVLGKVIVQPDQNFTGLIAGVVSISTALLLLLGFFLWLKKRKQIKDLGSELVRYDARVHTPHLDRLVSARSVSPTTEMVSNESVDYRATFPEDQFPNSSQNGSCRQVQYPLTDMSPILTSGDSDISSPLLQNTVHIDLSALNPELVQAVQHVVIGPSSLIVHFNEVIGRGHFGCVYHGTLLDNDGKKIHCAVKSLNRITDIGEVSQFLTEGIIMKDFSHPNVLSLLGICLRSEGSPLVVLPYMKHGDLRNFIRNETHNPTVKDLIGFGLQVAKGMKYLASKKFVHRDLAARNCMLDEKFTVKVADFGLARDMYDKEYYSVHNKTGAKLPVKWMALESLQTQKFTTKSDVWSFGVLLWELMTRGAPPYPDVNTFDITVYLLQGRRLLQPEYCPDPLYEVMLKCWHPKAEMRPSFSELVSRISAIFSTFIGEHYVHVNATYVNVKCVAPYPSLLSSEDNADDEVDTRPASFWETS

Columns and labels:
[1] = biological target: vascular endothelial growth factor receptor 2 (VEGFR2) (human (endogenous in PC-9)) (UniProt P35968); assay: co-IP; VEGFR2 immunoprecipitates blotted for MET and phosphorylated MET; cells untreated, treated with VEGF, or with VEGF and apatinib; NP-40 lysate, protein A/G magnetic beads
[2] = biological target: Flag-MET (mesenchymal epithelial transition factor, hepatocyte growth factor receptor) (UniProt P08581); assay: co-IP; PC-9/Vec or PC-9/MET cells lysed in NP-40 with PMSF and phosphatase inhibitors; anti-IgG or anti-Flag antibody overnight at 4 °C, protein A/G magnetic beads; western blotting

Substance	binding [1]	binding [2]
MET found in VEGFR2 immunoprecipitates (from UniProt P08581 25-1390) (receptor)	binds	
vascular endothelial growth factor receptor 2 (VEGFR2) (from UniProt P35968 20-1356)		binds
